Test results published in the supplement of paper PMC10849652.
The list shows a part of the results.

Sequences of proteins named here, by UniProt entry; tags and fusion partners are left off. A change or cut given only in a name is not applied to a line headed by its entry.
UniProt Q9Y587: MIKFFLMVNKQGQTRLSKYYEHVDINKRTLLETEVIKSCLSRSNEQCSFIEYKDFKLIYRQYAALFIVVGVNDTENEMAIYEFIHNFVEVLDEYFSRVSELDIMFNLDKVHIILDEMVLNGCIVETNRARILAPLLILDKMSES
UniProt Q6P6B7: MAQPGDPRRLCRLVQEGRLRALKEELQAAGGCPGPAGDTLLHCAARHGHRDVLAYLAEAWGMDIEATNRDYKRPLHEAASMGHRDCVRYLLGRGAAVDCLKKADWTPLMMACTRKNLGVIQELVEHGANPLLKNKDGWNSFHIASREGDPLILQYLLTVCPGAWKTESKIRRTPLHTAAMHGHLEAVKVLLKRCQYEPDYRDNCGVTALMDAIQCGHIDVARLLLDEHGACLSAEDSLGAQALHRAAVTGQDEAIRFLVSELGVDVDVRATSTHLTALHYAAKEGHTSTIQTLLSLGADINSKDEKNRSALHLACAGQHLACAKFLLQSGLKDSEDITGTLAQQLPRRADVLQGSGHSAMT
UniProt P53677: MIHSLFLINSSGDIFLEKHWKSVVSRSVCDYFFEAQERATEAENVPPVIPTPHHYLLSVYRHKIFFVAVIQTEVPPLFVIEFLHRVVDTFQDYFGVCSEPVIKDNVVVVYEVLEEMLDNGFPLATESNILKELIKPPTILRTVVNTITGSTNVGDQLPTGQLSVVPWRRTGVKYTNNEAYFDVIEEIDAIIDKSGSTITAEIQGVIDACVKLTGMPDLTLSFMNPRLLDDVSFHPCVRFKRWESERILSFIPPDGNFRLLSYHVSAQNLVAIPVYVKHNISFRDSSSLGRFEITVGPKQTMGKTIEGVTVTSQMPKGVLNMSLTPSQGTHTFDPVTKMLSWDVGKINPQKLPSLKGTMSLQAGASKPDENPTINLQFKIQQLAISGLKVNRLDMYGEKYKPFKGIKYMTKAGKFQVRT
UniProt P42331: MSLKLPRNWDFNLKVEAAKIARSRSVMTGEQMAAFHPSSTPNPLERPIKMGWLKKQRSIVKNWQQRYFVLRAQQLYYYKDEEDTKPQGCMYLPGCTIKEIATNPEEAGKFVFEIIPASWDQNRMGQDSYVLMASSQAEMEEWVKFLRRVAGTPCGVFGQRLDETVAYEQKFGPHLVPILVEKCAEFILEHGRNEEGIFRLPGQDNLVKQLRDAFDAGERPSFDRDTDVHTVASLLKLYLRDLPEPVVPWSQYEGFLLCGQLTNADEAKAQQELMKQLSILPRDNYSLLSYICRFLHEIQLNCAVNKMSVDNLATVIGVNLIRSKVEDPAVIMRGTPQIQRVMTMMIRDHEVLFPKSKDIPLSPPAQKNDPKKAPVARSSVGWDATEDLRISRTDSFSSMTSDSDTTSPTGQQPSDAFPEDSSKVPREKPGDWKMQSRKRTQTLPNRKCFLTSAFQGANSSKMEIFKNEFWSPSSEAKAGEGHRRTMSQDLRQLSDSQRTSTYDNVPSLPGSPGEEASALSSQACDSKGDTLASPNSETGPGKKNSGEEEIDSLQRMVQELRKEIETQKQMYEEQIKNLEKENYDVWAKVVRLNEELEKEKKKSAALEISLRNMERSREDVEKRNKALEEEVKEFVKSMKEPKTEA
UniProt P05090: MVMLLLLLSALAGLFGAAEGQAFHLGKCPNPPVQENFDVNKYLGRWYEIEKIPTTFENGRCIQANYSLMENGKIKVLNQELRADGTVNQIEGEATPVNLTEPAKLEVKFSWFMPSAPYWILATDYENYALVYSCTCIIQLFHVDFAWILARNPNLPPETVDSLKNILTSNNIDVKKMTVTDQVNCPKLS
UniProt Q6UB99: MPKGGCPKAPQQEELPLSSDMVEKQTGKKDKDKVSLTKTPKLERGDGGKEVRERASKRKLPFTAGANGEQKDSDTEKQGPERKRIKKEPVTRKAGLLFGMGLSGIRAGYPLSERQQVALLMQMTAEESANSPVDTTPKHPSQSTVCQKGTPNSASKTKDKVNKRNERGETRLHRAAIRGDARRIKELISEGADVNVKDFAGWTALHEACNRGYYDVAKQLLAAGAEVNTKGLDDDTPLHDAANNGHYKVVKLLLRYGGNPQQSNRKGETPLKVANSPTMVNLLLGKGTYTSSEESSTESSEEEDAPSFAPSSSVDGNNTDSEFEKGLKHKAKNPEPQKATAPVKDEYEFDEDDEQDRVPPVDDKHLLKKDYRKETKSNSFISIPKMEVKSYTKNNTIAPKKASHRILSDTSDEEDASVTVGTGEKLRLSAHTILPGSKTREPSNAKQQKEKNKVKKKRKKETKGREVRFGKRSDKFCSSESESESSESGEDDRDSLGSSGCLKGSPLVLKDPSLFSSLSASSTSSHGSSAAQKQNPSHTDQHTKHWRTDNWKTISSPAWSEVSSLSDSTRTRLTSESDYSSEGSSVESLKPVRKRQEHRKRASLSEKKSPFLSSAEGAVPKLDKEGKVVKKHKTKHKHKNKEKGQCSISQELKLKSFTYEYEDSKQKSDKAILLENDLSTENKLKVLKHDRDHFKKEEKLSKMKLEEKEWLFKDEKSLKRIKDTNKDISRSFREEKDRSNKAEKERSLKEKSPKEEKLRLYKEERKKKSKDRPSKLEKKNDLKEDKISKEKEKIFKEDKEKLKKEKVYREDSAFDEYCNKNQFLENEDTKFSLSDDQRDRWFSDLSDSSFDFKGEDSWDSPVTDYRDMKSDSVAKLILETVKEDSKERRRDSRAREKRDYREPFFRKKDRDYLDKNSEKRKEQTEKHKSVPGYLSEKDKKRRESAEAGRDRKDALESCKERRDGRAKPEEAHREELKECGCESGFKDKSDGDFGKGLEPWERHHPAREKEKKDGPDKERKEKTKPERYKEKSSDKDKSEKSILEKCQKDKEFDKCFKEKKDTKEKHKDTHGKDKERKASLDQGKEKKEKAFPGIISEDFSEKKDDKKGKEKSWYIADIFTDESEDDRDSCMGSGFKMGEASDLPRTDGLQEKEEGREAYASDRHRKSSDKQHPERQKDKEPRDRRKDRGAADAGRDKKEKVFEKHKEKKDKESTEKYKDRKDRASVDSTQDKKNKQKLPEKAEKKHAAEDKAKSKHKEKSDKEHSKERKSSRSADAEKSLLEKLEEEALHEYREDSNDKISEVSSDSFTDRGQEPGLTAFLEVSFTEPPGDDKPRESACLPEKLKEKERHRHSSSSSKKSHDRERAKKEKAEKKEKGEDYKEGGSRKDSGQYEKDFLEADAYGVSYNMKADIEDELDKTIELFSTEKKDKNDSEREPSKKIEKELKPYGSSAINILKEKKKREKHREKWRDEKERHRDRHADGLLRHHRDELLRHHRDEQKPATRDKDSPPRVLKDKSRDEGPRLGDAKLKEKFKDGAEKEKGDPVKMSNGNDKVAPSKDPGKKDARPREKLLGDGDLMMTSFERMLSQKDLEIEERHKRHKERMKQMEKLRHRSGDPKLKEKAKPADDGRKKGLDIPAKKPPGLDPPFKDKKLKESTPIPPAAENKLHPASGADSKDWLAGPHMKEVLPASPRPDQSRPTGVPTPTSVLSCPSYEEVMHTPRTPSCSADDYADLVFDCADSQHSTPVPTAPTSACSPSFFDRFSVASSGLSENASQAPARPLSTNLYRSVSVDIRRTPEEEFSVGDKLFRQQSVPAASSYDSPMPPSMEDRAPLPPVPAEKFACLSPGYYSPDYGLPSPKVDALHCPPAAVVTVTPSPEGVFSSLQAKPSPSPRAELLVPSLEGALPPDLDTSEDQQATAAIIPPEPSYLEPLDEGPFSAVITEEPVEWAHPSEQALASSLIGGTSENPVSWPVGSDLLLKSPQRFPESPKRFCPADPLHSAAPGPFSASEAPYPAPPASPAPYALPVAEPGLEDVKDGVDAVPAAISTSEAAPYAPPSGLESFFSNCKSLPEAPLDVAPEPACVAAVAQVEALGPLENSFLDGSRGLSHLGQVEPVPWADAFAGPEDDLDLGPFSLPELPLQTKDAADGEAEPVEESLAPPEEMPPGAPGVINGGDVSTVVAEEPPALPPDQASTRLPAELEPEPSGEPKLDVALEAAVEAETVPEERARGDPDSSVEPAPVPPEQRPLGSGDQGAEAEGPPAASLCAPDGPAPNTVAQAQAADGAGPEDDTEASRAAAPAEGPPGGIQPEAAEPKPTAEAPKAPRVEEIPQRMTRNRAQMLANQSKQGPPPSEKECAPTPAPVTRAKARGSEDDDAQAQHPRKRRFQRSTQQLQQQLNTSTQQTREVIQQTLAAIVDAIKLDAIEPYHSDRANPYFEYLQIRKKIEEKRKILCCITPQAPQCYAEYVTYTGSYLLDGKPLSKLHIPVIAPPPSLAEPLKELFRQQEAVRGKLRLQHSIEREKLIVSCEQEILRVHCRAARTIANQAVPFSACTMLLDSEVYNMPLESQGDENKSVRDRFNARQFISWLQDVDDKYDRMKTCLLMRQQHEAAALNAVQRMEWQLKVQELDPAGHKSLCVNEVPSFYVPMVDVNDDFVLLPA
UniProt Q9NUS5: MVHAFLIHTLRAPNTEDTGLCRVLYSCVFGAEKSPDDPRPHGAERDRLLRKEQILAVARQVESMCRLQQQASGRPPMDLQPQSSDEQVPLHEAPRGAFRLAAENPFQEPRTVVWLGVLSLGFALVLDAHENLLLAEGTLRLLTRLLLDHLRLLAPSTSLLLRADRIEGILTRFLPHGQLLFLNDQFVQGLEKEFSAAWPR
UniProt P53367: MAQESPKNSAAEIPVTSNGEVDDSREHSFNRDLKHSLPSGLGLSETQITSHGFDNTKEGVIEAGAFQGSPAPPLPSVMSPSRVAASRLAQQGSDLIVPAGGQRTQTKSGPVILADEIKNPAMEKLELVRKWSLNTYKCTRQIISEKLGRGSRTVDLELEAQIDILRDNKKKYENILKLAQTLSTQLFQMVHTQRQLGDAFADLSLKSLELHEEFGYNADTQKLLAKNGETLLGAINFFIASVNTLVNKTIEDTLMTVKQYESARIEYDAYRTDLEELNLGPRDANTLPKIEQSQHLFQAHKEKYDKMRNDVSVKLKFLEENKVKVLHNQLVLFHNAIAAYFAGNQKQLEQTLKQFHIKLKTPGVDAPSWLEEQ
UniProt Q7Z5H3: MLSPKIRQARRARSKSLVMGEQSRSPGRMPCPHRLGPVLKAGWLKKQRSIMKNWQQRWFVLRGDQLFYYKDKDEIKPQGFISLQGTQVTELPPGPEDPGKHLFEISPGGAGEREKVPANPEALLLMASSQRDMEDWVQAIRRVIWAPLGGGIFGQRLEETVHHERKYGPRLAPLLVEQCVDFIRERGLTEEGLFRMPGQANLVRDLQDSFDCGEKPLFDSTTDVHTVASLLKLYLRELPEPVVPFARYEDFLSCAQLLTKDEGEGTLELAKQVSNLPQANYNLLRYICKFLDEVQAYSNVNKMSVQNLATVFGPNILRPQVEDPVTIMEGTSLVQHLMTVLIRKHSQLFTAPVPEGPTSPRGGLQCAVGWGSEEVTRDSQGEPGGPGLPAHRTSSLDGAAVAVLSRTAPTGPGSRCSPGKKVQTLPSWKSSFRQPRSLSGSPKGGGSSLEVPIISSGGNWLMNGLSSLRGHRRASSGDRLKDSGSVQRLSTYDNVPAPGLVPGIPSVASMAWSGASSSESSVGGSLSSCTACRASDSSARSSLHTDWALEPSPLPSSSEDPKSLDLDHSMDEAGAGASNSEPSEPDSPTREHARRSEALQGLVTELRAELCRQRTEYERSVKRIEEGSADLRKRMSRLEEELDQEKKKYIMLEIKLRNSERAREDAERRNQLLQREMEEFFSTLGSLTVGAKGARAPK
UniProt Q9UNK9: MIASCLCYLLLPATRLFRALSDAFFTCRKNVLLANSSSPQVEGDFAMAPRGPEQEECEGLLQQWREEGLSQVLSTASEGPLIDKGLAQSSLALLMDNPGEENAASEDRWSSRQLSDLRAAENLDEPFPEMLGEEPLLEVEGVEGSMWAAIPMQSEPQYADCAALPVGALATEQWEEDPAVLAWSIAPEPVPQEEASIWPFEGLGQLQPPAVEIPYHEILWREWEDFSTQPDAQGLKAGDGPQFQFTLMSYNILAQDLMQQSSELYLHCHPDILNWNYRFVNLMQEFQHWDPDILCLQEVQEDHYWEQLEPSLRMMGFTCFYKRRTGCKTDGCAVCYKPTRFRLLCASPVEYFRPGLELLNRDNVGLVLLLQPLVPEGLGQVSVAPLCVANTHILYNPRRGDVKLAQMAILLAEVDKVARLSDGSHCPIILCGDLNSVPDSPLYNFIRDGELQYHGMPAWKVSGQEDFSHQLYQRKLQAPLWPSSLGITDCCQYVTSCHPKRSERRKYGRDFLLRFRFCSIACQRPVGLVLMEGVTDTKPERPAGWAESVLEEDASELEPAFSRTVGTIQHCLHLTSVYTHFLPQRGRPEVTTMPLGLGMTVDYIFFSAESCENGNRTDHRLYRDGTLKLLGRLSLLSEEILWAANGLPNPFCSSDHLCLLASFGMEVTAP
UniProt P02655: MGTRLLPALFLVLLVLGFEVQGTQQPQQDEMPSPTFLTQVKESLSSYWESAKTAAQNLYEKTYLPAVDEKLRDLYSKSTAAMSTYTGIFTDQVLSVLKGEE

These targets were tested with CNC(=O)C1=CC=CC=C1NC2=NC(=NC=C2Cl)NC3=C(C=C(C=C3)N4CCOCC4)OC (assay: log2 fold change, soluble protein after heating vs DMSO (PISA); higher = thermal stabilisation; K562 cells, 10 uM, 30 min; active = over 0.2 and 3.5 SD of the protein, either way, in both replicates (recomputed)).
In short: (§1)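 Soluble protein was defined as the supernatant after 21,000xg for 90 min. It came from K562 cells at 2×10^6 cells/mL given 10 μM compound for 30 min, heated in aliquots for 3 min across 48°C-58°C, pooled, and extracted in PBS with 0.5% NP-40 at 4°C, and was quantified by TMTpro 16plex LC-MS/MS with equalised channel sums. Thermal stability against control samples, from duplicates, is reported as log2 fold change.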
With AP4S1 (UniProt Q9Y587) the log2 fold change was inactive: -0.05.
In the case of ARHGAP5 (UniProt Q13017), the log2 fold change is reported as inactive: -0.112.
AP1G2 (UniProt O75843) was tested, and the log2 fold change was inactive: -0.008.
For ANLN (UniProt Q9NQW6), the log2 fold change was inactive: 0.02.
With ANKRD16 (UniProt Q6P6B7) the log2 fold change was inactive: 0.042.
In the case of AP3M2 (UniProt P53677), the log2 fold change is reported as inactive: -0.044.
For ARHGAP25 isoform 4 (UniProt P42331), the log2 fold change was inactive: -0.023.
For APOD (UniProt P05090), the log2 fold change was inactive: 0.732.
With ANKFY1 isoform 4 (UniProt Q9P2R3) the log2 fold change was inactive: 0.04.
For APC (UniProt P25054), the log2 fold change was inactive: -0.046.
With ANKRD52 (UniProt Q8NB46) the log2 fold change was inactive: 0.079.
With ARHGAP35 (UniProt Q9NRY4) the log2 fold change was inactive: 0.007.
For ANKRD11 (UniProt Q6UB99), the log2 fold change was inactive: 0.037.
In the case of APP (UniProt P05067), the log2 fold change is reported as inactive: 0.088.
For ANKH (UniProt Q9HCJ1), the log2 fold change was inactive: 0.
With AP5S1 (UniProt Q9NUS5) the log2 fold change was inactive: 0.039.
With AREG (UniProt P15514) the log2 fold change was inactive: -0.087.
In the case of APAF1 (UniProt O14727), the log2 fold change is reported as inactive: 0.109.
With ARFIP1 isoform 2 (UniProt P53367) the log2 fold change was inactive: -0.268.

What follows are targets tested with CNC(=O)c1ccc(Nc2ncc(C(F)(F)F)c(NCc3nccnc3N(C)S(C)(=O)=O)n2)cc1 [defactinib] in the same assay as above.
In short: as §1
ARHGEF10 (UniProt O15013) was tested, and the log2 fold change was inactive: -0.051.
For AP4S1 (UniProt Q9Y587), the log2 fold change was inactive: 0.059.
In the case of APOA4 (UniProt P06727), the log2 fold change is reported as inactive: -0.12.
In the case of ANLN (UniProt Q9NQW6), the log2 fold change is reported as inactive: -0.421.
ANKRD16 (UniProt Q6P6B7) was tested, and the log2 fold change was inactive: -0.094.
In the case of ARHGAP25 isoform 4 (UniProt P42331), the log2 fold change is reported as inactive: 0.02.
With APOD (UniProt P05090) the log2 fold change was inactive: 0.052.
For ANKFY1 isoform 4 (UniProt Q9P2R3), the log2 fold change was inactive: 0.045.
For APC (UniProt P25054), the log2 fold change was inactive: -0.128.
For ANKRD52 (UniProt Q8NB46), the log2 fold change was inactive: -0.218.
With ARHGAP35 (UniProt Q9NRY4) the log2 fold change was inactive: 0.013.
ANKRD13C (UniProt Q8N6S4) was tested, and the log2 fold change was inactive: -0.197.
For ANKRD11 (UniProt Q6UB99), the log2 fold change was inactive: -0.013.
For AP1B1 isoform 3 (UniProt Q10567), the log2 fold change was inactive: -0.234.
ANKRD26 (UniProt Q9UPS8) was tested, and the log2 fold change was inactive: 0.18.
For ANKLE2 (UniProt Q86XL3), the log2 fold change was inactive: 0.089.
API5 isoform 1 (UniProt Q9BZZ5) was tested, and the log2 fold change was inactive: -0.2.
For ARHGAP22 isoform 2 (UniProt Q7Z5H3), the log2 fold change was inactive: -0.017.
For ANGEL1 (UniProt Q9UNK9), the log2 fold change was inactive: -0.076.
APAF1 (UniProt O14727) was tested, and the log2 fold change was inactive: 0.082.
APOC2 (UniProt P02655) was tested, and the log2 fold change was inactive: -0.051.
